According to the supplement of paper PMC4604168 (melanoma cell lines):
This is one part of the list. Single values are uncertain, as repeats are few or missing.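 Cells were imaged in 1,536-well plates, and nuclei stained with an antibody against cleaved PARP were counted against all DNA-stained nuclei to give the apoptosis fraction. Screening doses were chosen to leave most cells alive, and resting and induced cleaved-PARP levels differ strongly between cell lines.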

These molecules were tested on CBRC034 (line from a melanoma biopsy) (assay: cleaved PARP positive nuclei fraction relative to DMSO control; melanoma cells; higher = more apoptosis). Conditions: library dose: low library concentration; 72 h.

| Structure (SMILES) | cleaved PARP positive nuclei fraction [%] |
| --- | --- |
| Cc1cc(Nc2cc(N3CCN(C)CC3)nc(/C=C/c3ccccc3)n2)n[nH]1 + C#Cc1cccc(Nc2ncnc3cc(OCCOC)c(OCCOC)cc23)c1 [erlotinib] (first compound 0.04 µM, partner dose 0.8 µM) | 144 |
| Nc1ccn([C@@H]2O[C@H](CO)[C@@H](O)C2(F)F)c(=O)n1 [gemcitabine] + COc1ccc(Cl)c(Nc2nc3ccccc3nc2NS(=O)(=O)c2cccc(NC(=O)C(C)(C)N)c2)c1 [XL147] (first compound 0.0004 µM, partner dose 0.8 µM) | 126 |
| Cc1cc(Nc2cc(N3CCN(C)CC3)nc(/C=C/c3ccccc3)n2)n[nH]1 + CNC(=O)c1cc(Oc2ccc(NC(=O)Nc3ccc(Cl)c(C(F)(F)F)c3)cc2)ccn1 [sorafenib] (first compound 0.04 µM, partner dose 0.4 µM) | 78.9 |
| O=C(O)c1ccc2c(c1)nc(Nc1cccc(Cl)c1)c1ccncc12 + Nc1nc(F)nc2c1ncn2[C@@H]1O[C@H](CO)[C@@H](O)[C@@H]1O [fludarabine] (first compound 0.4 µM, partner dose 0.2 µM) | 58.1 |
| O=C(O)c1ccc2c(c1)nc(Nc1cccc(Cl)c1)c1ccncc12 + Nc1cccc2c1CN(C1CCC(=O)NC1=O)C2=O [lenalidomide] (first compound 0.4 µM, partner dose 1 µM) | 72.6 |
| Nc1ncn([C@H]2C[C@H](O)[C@@H](CO)O2)c(=O)n1 [decitabine] + OCc1c[nH]c2ccccc12 [Indole-3-carbinol] (first compound 0.1 µM, partner dose 0.8 µM) | 77.5 |
| CC(C)C[C@H](NC(=O)[C@H](Cc1ccccc1)NC(=O)c1cnccn1)B(O)O [Bortezomib] + Cn1c(Nc2ccc(C(F)(F)F)cc2)nc2cc(Oc3ccnc(-c4ncc(C(F)(F)F)[nH]4)c3)ccc21 [CHIR265] (first compound 0.001 µM, partner dose 0.08 µM) | 641 |
| Cn1c(=O)n(-c2ccc(C(C)(C)C#N)cc2)c2c3cc(-c4cnc5ccccc5c4)ccc3ncc21 + C[C@]1(c2nc3c(C(N)=O)cccc3[nH]2)CCCN1 [Veliparib] (first compound 0.004 µM, partner dose 1.4 µM) | 91.2 |
| CS(=O)(=O)CCNCc1ccc(-c2ccc3ncnc(Nc4ccc(OCc5cccc(F)c5)c(Cl)c4)c3c2)o1 [lapatinib] + COCC[n+]1c2c(n(Cc3cnccn3)c1C)C(=O)c1ccccc1C2=O [YM155] (first compound 0.8 µM, partner dose 0.0004 µM) | 102 |
| CCCS(=O)(=O)Nc1ccc(F)c(C(=O)c2c[nH]c3ncc(Cl)cc23)c1F + Nc1nc(F)nc2c1ncn2[C@@H]1O[C@H](CO)[C@@H](O)[C@@H]1O [fludarabine] (first compound 0.08 µM, partner dose 0.2 µM) | 22.5 |
| Cc1cc(Nc2cc(N3CCN(C)CC3)nc(/C=C/c3ccccc3)n2)n[nH]1 + CO[C@H]1C[C@@H]2CC[C@@H](C)[C@@](O)(O2)C(=O)C(=O)N2CCCC[C@H]2C(=O)O[C@H]([C@H](C)C[C@@H]2CC[C@@H](OCCO)[C@H](OC)C2)CC(=O)[C@H](C)/C=C(\C)[C@@H](O)[C@@H](OC)C(=O)[C@H](C)C[C@H](C)/C=C/C=C/C=C/1C [everolimus] (first compound 0.04 µM, partner dose 0.02 µM) | 161 |
| CCCS(=O)(=O)Nc1ccc(F)c(C(=O)c2c[nH]c3ncc(Cl)cc23)c1F + Nc1ncn([C@H]2C[C@H](O)[C@@H](CO)O2)c(=O)n1 [decitabine] (first compound 0.08 µM, partner dose 0.1 µM) | 104 |

2 records picked at random from the list so far, as already listed:

| Structure (SMILES) | cleaved PARP positive nuclei fraction [%] |
| --- | --- |
| O=C(O)c1ccc2c(c1)nc(Nc1cccc(Cl)c1)c1ccncc12 + Nc1nc(F)nc2c1ncn2[C@@H]1O[C@H](CO)[C@@H](O)[C@@H]1O [fludarabine] (first compound 0.4 µM, partner dose 0.2 µM) | 58.1 |
| CC(C)C[C@H](NC(=O)[C@H](Cc1ccccc1)NC(=O)c1cnccn1)B(O)O [Bortezomib] + Cn1c(Nc2ccc(C(F)(F)F)cc2)nc2cc(Oc3ccnc(-c4ncc(C(F)(F)F)[nH]4)c3)ccc21 [CHIR265] (first compound 0.001 µM, partner dose 0.08 µM) | 641 |
